PubChem BioAssay AID504444 (National Center for Advancing Translational Sciences (NCATS), 2011)
Among all 360,000 compounds or so, about 7,500 (2.1%) were called active. Inconclusive means that the source gave no clear call. Such entries were picked first, then a sample of the others. The call rests on the fitted dose curve; in most records, active means well fitted inhibition curve with a large enough effect; inconclusive means small, poorly fitted or top-dose-only effect, or effect the other way; inactive means flat fitted curve, though single readings scatter. Potencies of inconclusive entries are doubtful fits and often do not repeat.

experiment: Nrf2 qHTS screen for inhibitors; settings: A549 ARE-Fluc reporter, luciferase luminescence, 18-24 h; activity change, negative = inhibition: at 46 µM (top of the series); further: nearly all actives have a fitted effect of over 60% in size
How it was run: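 Two sequential reads on A549 ARE_Fluc cells exposed to compound for 18-24 h: a CellTiter-Fluor fluorescence read for viability, then a luciferase luminescence read for Nrf2/ARE activity.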
On the % scale 0 is the no-effect control and ±100 the full control effect; potency means the concentration at half of the fitted maximal effect.

SMILES | Potency | activity change, negative = inhibition
O=C(NC1CCCc2ccccc21)c1cc(F)cc(F)c1 (stereo not drawn) | inconclusive: 32.6 µM [falling, single point] | 
Cc1ccc(-n2c(SCC(=O)N3CCCCC3)nc(O)c(Cc3ccccc3)c2=O)cc1 |  | inactive: -13.7%
COc1cc(NC(=O)C2CC(c3ccccc3Cl)=NO2)cc(OC)c1OC (stereo not drawn) | inconclusive: 14.6 µM [falling, partial curve, poor fit] | 
CCOc1ccc2[nH]c(=O)c(CN(Cc3cccs3)Cc3nnnn3C(C)(C)C)cc2c1 | inconclusive: 32.6 µM [falling, single point] | 
Cc1ccc2nc(-c3sc4nc(C)cc(C)c4c3N)[nH]c2c1 | inconclusive: 10.3 µM [activator, partial curve] | 
Cc1cccc(N2CCN(C(=O)C3CCN(S(=O)(=O)c4cccc5nsnc45)CC3)CC2C)c1 (stereo not drawn) | inconclusive: 10.3 µM [falling, partial curve] | 
CCCCN(CC)CCNC(=O)c1cc2c(=O)n(C)c3ccccc3c2s1 |  | inactive: -0.133%
COc1ccc(-c2nn(-c3ccccc3)cc2C=O)cc1[N+](=O)[O-] | inconclusive: 4.61 µM [activator, partial curve, poor fit] | 
COc1ccc(COc2ccc3ccc(=O)oc3c2)cc1 | inconclusive: 23.1 µM [activator, single point] | 
Fc1cccc(CCN2C(=S)NC[C@@H]2CC2CCCCC2)c1 |  | inactive: -24.6%
CCOC(=O)c1c(C)[nH]c(C(=O)C(C)Cl)c1C (stereo not drawn) |  | inactive: -11.2%
CCOC(=O)c1ccc(N2CN(CCc3ccccc3)CNC2=S)cc1 | inconclusive: 0.517 µM [falling, full curve] | 
Cc1cccc(-n2ncc(C(=O)NCc3ccco3)c2C2CCN(C(=O)OC(C)(C)C)CC2)c1 |  | inactive: -16.9%
O=C(Nc1ccccc1Cl)C1C2CCCCC21 (stereo not drawn) | inconclusive: 16.4 µM [activator, single point] | 
O=C(CSc1ncc2c(n1)-c1ccccc1N(Cc1ccc(F)cc1)S2(=O)=O)NCc1ccccc1 | inconclusive: 8.2 µM [activator, partial curve, poor fit] | 
Cc1ccc(CNCc2cn[nH]c2-c2ccc(C)cc2)cc1 |  | inactive: -4.71%
COc1ccc(-c2noc(CN(C)C(=O)c3ccoc3C)n2)cc1OC | inconclusive: 13 µM [activator, partial curve, poor fit] | 
O=C(c1ccc(-n2c(SCc3cc(F)ccc3F)nc3ccccc3c2=O)cc1)N1CCOCC1 |  | inactive: 0.889%
CC1(C)CC(N2CCCC2)=CC(=[N+]2CCCC2)C1 | active: 2.06 µM | 
c1ccc(-c2cn(-c3ccccc3)c3[n+]2CCCS3)cc1 | active: 9.2 µM | 
COc1cc(NS(=O)(=O)c2ccc(NC(=O)c3ccc(C(C)=O)cc3)cc2)nc(OC)n1 |  | inactive: 6.79%
COc1ccc(NC(=O)c2sc3nc4c(cc3c2N)CCCCCC4)cc1Cl | inconclusive: 7.31 µM [falling, partial curve] | 
CCN(CC)CCCNC(=O)c1ccccc1C |  | inactive: 3.14%

SMILES | Potency | activity change, negative = inhibition
CCCCCCC(=O)N1CCC(c2nc3c(nnn3Cc3ccccc3Cl)c(=O)[nH]2)CC1 |  | inactive: -26.1%
Cc1ccc(C(=O)N2CCN(c3ccc(C(F)(F)F)cn3)CC2)o1 | inconclusive: 10.3 µM [falling, partial curve] | 
CCn1c(Oc2ccc(F)cc2)nc2c1c(=O)n(C)c(=O)n2C |  | inactive: -16.4%
O=C(NCCc1ccc(Cl)cc1Cl)c1cncc(Br)c1 | inconclusive: 14.6 µM [falling, single point] | 
Cn1c(=O)n(CCc2ccccc2)c(=O)c2c1ncn2Cc1ccccc1 | inconclusive: 16.4 µM [falling, partial curve, poor fit] | 
Cc1cccc(C)c1OCCOCCN1CCN(C)CC1 | inactive | 
COC(=O)c1c(C)[nH]c(C(=O)C(C)Sc2nnc(-c3cc(OC)c(OC)c(OC)c3)o2)c1C (stereo not drawn) | inconclusive: 20.6 µM [falling, partial curve, poor fit] | 
CCOC(=O)CNC(=S)n1ncnc1N | inconclusive: 0.259 µM [falling, full curve, poor fit] | 
O=C(c1cccc(S(=O)(=O)N2CCCCCC2)c1)N1CCN(Cc2ccccc2)CC1 | inconclusive: 6.51 µM [falling, single point] | 
COc1ccc(CCNS(=O)(=O)c2cccs2)cc1 | inconclusive: 7.31 µM [activator, partial curve, poor fit] | 
O=C(CNC(=S)NC(=O)c1ccccc1Br)c1ccccc1 | inconclusive: 20.6 µM [activator, partial curve, poor fit] | 
Cc1ccc(OCc2cc(C(=O)N(C)CCc3ccccn3)no2)cc1C | inconclusive: 0.92 µM [activator, partial curve] | 
CCNC(=O)CSc1nc(-c2ccccc2)cs1 | inconclusive: 8.2 µM [activator, partial curve, poor fit] | 
O=C(O)c1ccc(Cl)c(S(=O)(=O)N(Cc2ccccc2)c2ccc(F)cc2)c1 | inconclusive: 2.06 µM [falling, partial curve, poor fit] | 
O=c1cc(N2CCCCC2)c(-c2ccccc2)nn1Cc1ccc(F)cc1 | inconclusive: 20.6 µM [falling, single point] | 
CCCCNc1nc(C#N)nc(Nc2ccccc2)n1 |  | inactive: -12.2%
COc1ccc(CC(=O)NC(C)c2nnc(SCC(=O)Nc3ccccc3F)n2C)cc1 (stereo not drawn) | inconclusive: 7.31 µM [falling, partial curve, poor fit] | 
Cc1ccc(C(=O)CC(SCC(=O)O)c2ccc([N+](=O)[O-])cc2)cc1 (stereo not drawn) | inconclusive: 13 µM [activator, partial curve] | 
Cc1cc(=O)oc(C)c1C(=O)OCC(=O)c1ccc(Br)cc1 | inconclusive: 3.26 µM [falling, full curve, poor fit] | 
CN1CCN(c2oc(-c3ccc(OCc4ccc(Cl)cc4)cc3)nc2C#N)CC1 | inconclusive: 29.1 µM [activator, single point] | 
Cc1cc(C(=O)CSc2cccc[n+]2[O-])c(C)n1-c1ccc(OC(F)F)cc1 | inconclusive: 29.1 µM [falling, single point] | 
Cc1ccc(OCCN2CCN(C(=O)CCC(=O)Nc3nnc(CC(C)C)s3)CC2)cc1 | active: 10.3 µM | 
Cc1ccc(Cl)c2c(N=Nc3ccccc3)c(O)[nH]c12 | inconclusive: 20.6 µM [activator, partial curve, poor fit] | 

SMILES | Potency | activity change, negative = inhibition
Cc1ccc(C(=O)c2cn(Cc3ccccc3F)c3cc4c(cc3c2=O)OCO4)cc1 | inconclusive: 5.8 µM [activator, full curve] | 
Cc1ccccc1C(=O)c1c[nH]c(C(=O)N2CCN(c3ccccc3F)CC2)c1 | inconclusive: 14.6 µM [falling, single point] | 
COc1cc(OC)c(NC(=O)CCn2cccn2)cc1Cl | inconclusive: 29.1 µM [activator, single point] | 
O=C(CSc1nnc(-c2cccnc2)o1)Nc1ccccc1Br |  | inactive: 17.7%
O=C(/C=C/Nc1ccc(F)c(Cl)c1)c1ccccc1 | inconclusive: 11.6 µM [activator, partial curve] | 
O=C(NC(=S)Nc1ccccc1O)c1ccc(-c2ccc(Cl)cc2)o1 | inconclusive: 6.51 µM [activator, single point] | 
NC(=S)N=Nc1c(O)n(Cc2ccc(F)cc2)c2ccccc12 |  | inactive: -26.1%
Cc1cc(C)nc(Nc2n[nH]c(C)n2)n1 | active: 5.8 µM | 
O=C1NC[C@H](c2ccccc2)OC(=O)[C@@H](Cc2ccc(F)cc2)CC/C=C/C[C@H]1CC(=O)N(CCO)Cc1ccccc1 | inconclusive: 29.1 µM [falling, single point] | 
COc1ccc(-c2nc3ccccn3c2C=O)cc1 | inconclusive: 2.31 µM [activator, full curve] | 
CCOC(=O)CC1(NC(=O)c2cc(COc3cncc(Cl)c3)on2)CCCCC1 | inconclusive: 20.6 µM [falling, single point] | 
Cc1ccc(OCCCn2c(=O)oc3ccccc32)cc1 | inconclusive: 2.31 µM [falling, partial curve, poor fit] | 
CCc1n[nH]c(=S)n1/N=C/c1c(C)nn(-c2ccccc2)c1Cl |  | inactive: 1.6%
CC1CCCCC1NC(=O)c1ccc2c(c1)OCCO2 (stereo not drawn) | inconclusive: 23.1 µM [activator, single point] | 
CCOC(=O)c1ccc(Oc2coc3cc(O)ccc3c2=O)cc1 | inconclusive: 29.1 µM [falling, partial curve, poor fit] | 
Cc1ccc(N2C(=O)c3ccccc3NC2C(C)Cc2ccc3c(c2)OCO3)cc1 (stereo not drawn) | inconclusive: 32.6 µM [falling, single point] | 
Cc1nc(-c2ccc(Cl)cc2)sc1C(=O)O | inconclusive: 13 µM [activator, partial curve] | 
CC(=O)c1cnc2c(-c3ccc(Cl)cc3)cnn2c1C | inconclusive: 1.64 µM [activator, partial curve, poor fit] | 
CCCC(=O)Nc1cnc(NC(=O)c2cccc(F)c2)cc1C | inconclusive: 1.3 µM [activator, partial curve, poor fit] | 
CN(C)C=NC(=O)c1cc(C(=O)c2ccc(Cl)cc2)c[nH]1 | inconclusive: 2.59 µM [falling, full curve, poor fit] | 
O=C(C1CC1)N(CCN(C(=O)C1CC1)c1ccccc1)c1ccccc1 | inconclusive: 0.206 µM [falling, full curve, poor fit] | 
O=C(CN1CCN(C(=O)CNC(=O)c2ccc(N3CCCC3=O)cc2)CC1)Nc1ccccc1Cl | inconclusive: 2.06 µM [falling, partial curve, poor fit] | 

A second format for part of the listing above.

| SMILES | Potency | activity change, negative = inhibition |
| --- | --- | --- |
| Cc1ccc(C(=O)c2cn(Cc3ccccc3F)c3cc4c(cc3c2=O)OCO4)cc1 | inconclusive: 5.8 µM [activator, full curve] |  |
| COc1cc(OC)c(NC(=O)CCn2cccn2)cc1Cl | inconclusive: 29.1 µM [activator, single point] |  |
| O=C(/C=C/Nc1ccc(F)c(Cl)c1)c1ccccc1 | inconclusive: 11.6 µM [activator, partial curve] |  |
| O=C(NC(=S)Nc1ccccc1O)c1ccc(-c2ccc(Cl)cc2)o1 | inconclusive: 6.51 µM [activator, single point] |  |
| NC(=S)N=Nc1c(O)n(Cc2ccc(F)cc2)c2ccccc12 |  | inactive: -26.1% |
| Cc1cc(C)nc(Nc2n[nH]c(C)n2)n1 | active: 5.8 µM |  |
| O=C1NC[C@H](c2ccccc2)OC(=O)[C@@H](Cc2ccc(F)cc2)CC/C=C/C[C@H]1CC(=O)N(CCO)Cc1ccccc1 | inconclusive: 29.1 µM [falling, single point] |  |
| COc1ccc(-c2nc3ccccn3c2C=O)cc1 | inconclusive: 2.31 µM [activator, full curve] |  |
| CCOC(=O)CC1(NC(=O)c2cc(COc3cncc(Cl)c3)on2)CCCCC1 | inconclusive: 20.6 µM [falling, single point] |  |
| Cc1ccc(OCCCn2c(=O)oc3ccccc32)cc1 | inconclusive: 2.31 µM [falling, partial curve, poor fit] |  |
| CCc1n[nH]c(=S)n1/N=C/c1c(C)nn(-c2ccccc2)c1Cl |  | inactive: 1.6% |
| Cc1nc(-c2ccc(Cl)cc2)sc1C(=O)O | inconclusive: 13 µM [activator, partial curve] |  |
| CC(=O)c1cnc2c(-c3ccc(Cl)cc3)cnn2c1C | inconclusive: 1.64 µM [activator, partial curve, poor fit] |  |
| CCCC(=O)Nc1cnc(NC(=O)c2cccc(F)c2)cc1C | inconclusive: 1.3 µM [activator, partial curve, poor fit] |  |
